Data: US4732972A (Hoffmann-La Roche Inc., priority 1985, dated 1988)

What was measured:
[1] = general procedure: Boc solid-phase peptide synthesis; PAM resin; DCC; preformed symmetrical anhydride for Boc-Gln; DCC-1-hydroxybenzotriazole for; conditions: whole synthesis, scale approx. 80 μmol
[2] = general procedure: Boc solid-phase peptide synthesis; PAM resin (C-terminal acid); benzhydrylamine (BHA) resin (C-terminal amide); DCC; preformed symmetrical anhydride for Boc-Gln; DCC-1-hydroxybenzotriazole for; conditions: whole synthesis

In the case of (Leu^27)-GRF(1-44)-OH, the crude mass [1] is reported as 332 mg, the difficulty met [2] is reported as “Noted exceptions which required multiple couplings” and the isolated yield [2] is reported as 5%.
